Source: patent US20080038265A1 (published 2008)
No constants are given. Whether binding was seen depends on the method and setting. Some binding calls cover weakened binding; strength is not graded here.

T1: soluble EpoR (EposR) (human, UniProt P19235 25-250, limits assumed)
T1 construct: Test antigen in BIAcore and in yeast display assays; also called soluble recombinant human EpoR
T1 sequence (looked up): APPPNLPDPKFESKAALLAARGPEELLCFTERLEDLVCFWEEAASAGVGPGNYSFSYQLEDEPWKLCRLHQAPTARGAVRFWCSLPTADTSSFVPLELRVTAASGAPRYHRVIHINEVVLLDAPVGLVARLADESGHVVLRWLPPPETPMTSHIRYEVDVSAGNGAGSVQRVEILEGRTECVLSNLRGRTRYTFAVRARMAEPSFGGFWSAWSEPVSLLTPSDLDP


Tests used:
[1] = biological target: T1, soluble EpoR (EposR); assay: yeast surface display, flow cytometry: equilibrium titration of scFv-displaying yeast with soluble EpoR at 37 C, bound EposR detected with MAB307 + anti-mouse RPE
[2] = biological target: T1, soluble EpoR (EposR); assay: yeast surface display off-rate, flow cytometry: yeast loaded with 0.5 uM EposR, then 10,000 fold excess of Ab12 IgG1 at 37 C; remaining EposR detected with MAB307 + anti-mouse PE

| binding [1] | binding [2] | Binder |
| --- | --- | --- |
| binds | – | Ab12 41/34 (scFv) scFv displayed on yeast: GENKVEYAPALMALSQVQLQESGPGLVKPSETLSLTCTVSGASISSYYWSWIRQPPGKGLEWIGYIYYSGSTNYNPSLKSRVTISVDTSKNQFSLKLRSVTAADTAVYYCARERLGIGDYWGQGTLVTVSSGHEAAAVMQVQYPASDIQLTQSPSSLSASVGDRVTITCRASQGIRNDLGWYQQKPGKAPKRLIYAASSLQSGVPSRFSGSGSGTEFTLTISSLQPEDFATYYCLQHNTYPPTFGQGTKVEIK |
| binds | binds | Ab12 41/40 scFv (scFv) scFv: GENKVEYAPALMALSQVQLQESGPGLVKPSETLSLTCTVSGASISSYYWSWIRQPPGKGLEWIGYIYYSGSTNYNPSLKSRVTISVDTSKNQFSLKLRSVTAADTAVYYCARERLGIGDYWGQGTLVTVSSGPAKELTPLKEAKVSDIQLTQSPSSLSASVGDRVTITCRASQGIRNDLGWYQQKPGKAPKRLIYAASSLQSGVPSRFSGSGSGTEFTLTISSLQPEDFATYYCLQHNTYPPTFGQGTKVEIK |
| binds | – | Ab12 41/WT (scFv, also called Ab12 scFv construct with linker 41 in the tether position and the Gly/Ser linker (WT) in the scFv linker position) scFv displayed on yeast: GENKVEYAPALMALSQVQLQESGPGLVKPSETLSLTCTVSGASISSYYWSWIRQPPGKGLEWIGYIYYSGSTNYNPSLKSRVTISVDTSKNQFSLKLRSVTAADTAVYYCARERLGIGDYWGQGTLVTVSSGGGGSGGGGSGGGGSDIQLTQSPSSLSASVGDRVTITCRASQGIRNDLGWYQQKPGKAPKRLIYAASSLQSGVPSRFSGSGSGTEFTLTISSLQPEDFATYYCLQHNTYPPTFGQGTKVEIK |
| binds | – | Ab12 WT/WT (scFv) scFv displayed on yeast: GGGGSGGGGSGGGGSQVQLQESGPGLVKPSETLSLTCTVSGASISSYYWSWIRQPPGKGLEWIGYIYYSGSTNYNPSLKSRVTISVDTSKNQFSLKLRSVTAADTAVYYCARERLGIGDYWGQGTLVTVSSGGGGSGGGGSGGGGSDIQLTQSPSSLSASVGDRVTITCRASQGIRNDLGWYQQKPGKAPKRLIYAASSLQSGVPSRFSGSGSGTEFTLTISSLQPEDFATYYCLQHNTYPPTFGQGTKVEIK |
